From PubChem BioAssay AID624297 (National Center for Advancing Translational Sciences (NCATS), 2012)
Screen size: about 340,000 compounds; about 6,200 (1.8%) were called active. Inconclusive means that the source gave no clear call. Such entries were picked first, then a sample of the others. The call rests on the fitted dose curve; in most records, active means well fitted activation curve with a large enough effect; inconclusive means small, poorly fitted or top-dose-only effect; inactive means no such curve, though single readings can be large or run the other way. Where the call is inconclusive, the potency comes from a doubtful curve fit.

experiment: A quantitative high throughput screen for small molecules that induce DNA re-replication in SW480 colon adenocarcinoma cells.; further: nearly all actives have a fitted effect of over 55% in size; conditions: Hoechst DNA content imaging, 48 h; series mostly up to 46.1 µM
How it was run: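 Quantitative HTS format with DMSO vehicle controls; 48 hr drug incubation at 37 C, then 40 min Hoechst staining and scanning imager measurement at 405 nm excitation.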
Potency means the concentration at half of the fitted maximal effect.

Structure (SMILES) | Potency
COc1ccc(-n2c(N)c(C(=O)NCc3ccco3)c3nc4ccccc4nc32)cc1OC | active: 18.4 µM
CSc1ncc(Cl)c(C(=O)Nc2ccccc2C)n1 | inactive
CCCc1nc2sc3c(c2c(=O)n1NC(=O)c1ccco1)CC(C)(C)OC3 | inactive
COc1ccc(Cl)cc1C(=O)NNC(=S)NC(=O)c1cc(-c2ccccc2)nc2ccccc12 | inconclusive: 29.1 µM [activator, partial curve, poor fit]
O=C(OOC(=O)c1ccccc1)c1ccccc1 | inactive
O=c1oc(CCO)cc2ccc(C#Cc3ccsc3)cc12 | inconclusive: 0.116 µM [activator, full curve, poor fit]
CC1=NN(C(N)=S)C(=O)C1N=Nc1cccc(Cl)c1C (stereo not given) | inactive
COC1=CC(=O)C=C(OC)C1(O)CC(C)=O | inconclusive: 25.9 µM [activator, single point]
O=C(CCCSc1ccccc1)Nc1nc(-c2ccco2)c(-c2ccco2)s1 | inactive
C1CCN(CCCNC2C3CC4CC(C3)CC2C4)C1 (stereo not given) | inconclusive: 29.1 µM [activator, single point]
CCN(CCCNS(=O)(=O)c1cc(-c2cc(C)no2)ccc1C)Cc1ccccc1 | inconclusive: 23.1 µM [activator, single point]
O=C(Cc1ccc(N2CCNC2=O)cc1)N1CCCC(Nc2cccc(F)c2)C1 (stereo not given) | inconclusive: 7.31 µM [activator, partial curve, poor fit]
CCOc1ccc(C2CC(=O)NC3=C2C(=O)CCC3)cc1 (stereo not given) | inactive
CCOc1ccc(CC(=O)Nc2sc(Cc3ccccc3)c(C)c2C(N)=O)cc1OCC | inconclusive: 2.31 µM [activator, full curve, poor fit]
CCCCOc1ccc(Br)cc1CSC(=N)N | inconclusive: 18.4 µM [activator, single point]
COc1ccc(Cl)cc1NC(=O)CSc1nc(NS(=O)(=O)c2ccc(C)cc2)cc(=O)[nH]1 | inactive
O=C(N/N=C/c1ccc(F)cc1)c1cc(-c2ccco2)nc2ccccc12 | inconclusive: 20.6 µM [activator, single point]
Cc1cc2c(cc1S(=O)(=O)N1CCCC1)n(C)c(=O)c(=O)n2C | inactive
O=C(Nc1ccncc1)C1CCN(S(=O)(=O)c2cccs2)CC1 | inactive
CCOC(=O)c1nnc(-c2ccccc2)nc1Sc1ccccc1Cl | inconclusive: 29.1 µM [activator, single point]
O=C(NC(=S)Nc1nc2ccc(F)cc2s1)c1ccco1 | inactive
O=[N+]([O-])c1ccc(Cl)cc1NCCCN1CCOCC1 | inactive
Cn1c(CC(=O)Nc2ccc(Cl)cc2)nnc1SCC(=O)N1CCOCC1 | inactive
CN(C)CCCn1c(N)c(C#N)c2nc(C#N)c(C#N)nc21 | active: 16.4 µM

Structure (SMILES) | Potency
Cc1cccc(NC(=O)c2ccc(CN3CCc4ccccc4C3)cc2)c1C | inactive
CCn1cc(C(=O)NCCCN2CCCC(C)C2)c(=O)c2cc(S(=O)(=O)N(C)C3CCCCC3)ccc21 (stereo not given) | inconclusive: 23.1 µM [activator, single point]
Cc1ccccc1CCN(C(=O)Cn1nnc2ccccc21)C(C(=O)NCC1CCCO1)c1nc2ccccc2n1C (stereo not given) | inconclusive: 3.26 µM [activator, partial curve, poor fit]
Cc1cc(C)n(-c2ccc3nncn3n2)n1 | inconclusive: 29.1 µM [activator, single point]
CC(C)(C)c1cc(=O)n(-c2ccccc2)[nH]1 | inconclusive: 5.17 µM [activator, partial curve, poor fit]
Cc1cc(C)cc(NC(=S)NCCc2c[nH]c3ccccc23)c1 | inconclusive: 20.6 µM [activator, single point]
CCS(=O)(=O)Nc1cccc(C2=NN(S(C)(=O)=O)C(c3cccs3)C2)c1 (stereo not given) | inconclusive: 0.291 µM [activator, full curve, poor fit]
COc1ccc([C@@H]2[C@@H]3C(=O)N(C(C)(C)C)C(=O)[C@@H]3[C@]3(Cc4ccccc4)C(=O)N(c4ccc(C)cc4)C(=O)N23)cc1 | inactive
CCNc1nc(Cl)nc(N(NC(C)=O)C(C)CC)n1 (stereo not given) | inactive
C=CCS(=O)(=O)N1CCCC(N2CCN(c3ccccc3OC)CC2)C1 (stereo not given) | inconclusive: 6.51 µM [activator, single point]
O=C(c1cccnc1)N1CCN(Cc2cccc(F)c2)CC1 | inconclusive: 0.517 µM [activator, partial curve, poor fit]
Cc1c(C(=O)N/N=C/c2cccnc2)nnn1-c1nonc1N | inconclusive: 16.4 µM [activator, partial curve, poor fit]
CC(=O)Nc1ccc(S(=O)(=O)Nc2nc3ccccc3nc2N2CCc3ccccc3C2)cc1 | inconclusive: 11.6 µM [activator, single point]
COc1ccc(C2=NN(CCC(=O)NC3CCC(C)CC3)C(=O)CC2)cc1 (stereo not given) | inactive
CCN(CC(=O)Nc1c(F)cccc1F)C(=O)c1ccc(Cl)c(S(=O)(=O)N2CCCC2)c1 | inconclusive: 20.6 µM [activator, single point]
C[C@@]12CCC=C[C@H]1[C@H](c1ccc(F)c(/C=C/c3ccccc3)c1)N(Cc1ccccc1)C2=O | inconclusive: 0.0058 µM [activator, full curve, poor fit]
COc1cccc(C(=O)NC(c2ccccc2)C2CCCC2)c1 (stereo not given) | inconclusive: 29.1 µM [activator, single point]
CC(=O)Nc1cc2c(cc1[N+](=O)[O-])-c1ccccc1C2O (stereo not given) | inconclusive: 11.6 µM [activator, partial curve, poor fit]
CCOc1ccc(CCNC(=O)c2ccc(Cl)c(S(=O)(=O)N3CCOCC3)c2)cc1OCC | inconclusive: 6.51 µM [activator, partial curve, poor fit]
CC(=O)NC(C)c1cc(Cl)c2cccnc2c1O (stereo not given) | inconclusive: 6.51 µM [activator, single point]
CC(=O)NC(=O)c1ccc(-c2ccc(Cl)cc2)o1 | inactive
CCc1cc(=O)oc2cc(C)cc(OCC(=O)N3CCC(C(=O)NC(C)C)(c4ccccc4)CC3)c12 | inactive
COc1cccc(C(=O)OCC(=O)c2ccc(Br)s2)c1OC | inactive
Cc1ccc(NC(=O)CN(C)C(=O)c2ccccc2Sc2ccccc2C#N)cc1 | inconclusive: 0.231 µM [activator, full curve, poor fit]

Structure (SMILES) | Potency
O=C(CN(C1CCCCC1)S(=O)(=O)c1ccccc1)NCC1CCCO1 (stereo not given) | inactive
CC(=O)C1=C(C)NC(SCC(=O)Nc2nccs2)=C(C#N)C1c1ccccc1Cl (stereo not given) | active: 6.51 µM
CN(CCOc1ccccc1)CC(=O)Nc1ccc(S(=O)(=O)N2CCCC2)cc1 | inactive
COC(=O)[C@H](CC(C)C)NC(=O)Cn1cnc2c(SC)nc(N)nc21 | inconclusive: 2.59 µM [activator, single point]
COc1ccc(Cc2nc3ccc(C(=O)NCCc4ccccn4)cc3o2)cc1OC | inactive
O=C(CNc1cccc(C(F)(F)F)c1)N/N=C/c1cn(-c2ccccc2)nc1-c1ccccc1 | inconclusive: 29.1 µM [activator, single point]
O=C([C@H](Cc1ccccc1)N1C(=O)c2ccccc2C1=O)N1CCOCC1 | inactive
Cc1noc(C)c1COC(=O)COc1cccc2c1OC(C)(C)C2 | inactive
COc1ccc(N(CC(=O)NCc2ccc(Cl)cc2)S(=O)(=O)c2ccccc2[N+](=O)[O-])c(OC)c1 | inconclusive: 5.17 µM [activator, partial curve]
COc1cc(OC)cc(C(=O)NNC(=O)c2ccc3ccccc3n2)c1 | inconclusive: 18.4 µM [activator, single point]
Cc1cc(C)c2nc(N3CCCC(C(=O)NCCCN4CCOCC4)C3)sc2c1 (stereo not given) | inconclusive: 18.4 µM [activator, partial curve, poor fit]
COc1cc(OC)cc(-c2c(-c3cccs3)c3cc(-c4ccc(OC)c(F)c4)ccc3n2C)c1 | inconclusive: 18.4 µM [activator, single point]
C=CCc1cccc(/C=N/NC(=O)CCCNc2ccc(C)cc2)c1O | inconclusive: 20.6 µM [activator, single point]
CCOC(=O)N1CCC(NC(=O)CSCc2nc(-c3ccccc3Cl)oc2C)CC1 | inactive
Cc1c(C(=O)N(C)CCC#N)oc2ccc(S(=O)(=O)N3CCOCC3)cc12 | inconclusive: 6.51 µM [activator, partial curve, poor fit]
Cc1cccc(NC(=O)c2ccc(F)c(S(=O)(=O)N3CCC4(CC3)OCCO4)c2)c1 | inconclusive: 29.1 µM [activator, single point]
Cc1ccccc1CS(=O)(=O)CCC(=O)NCCN1CCN(c2cccc(Cl)c2)CC1 | inactive
CCN(c1ccc(N=Cc2c(O)n(Cc3ccc(OC)cc3)c(=O)c3ccccc23)cc1)C(C)C | inconclusive: 20.6 µM [activator, single point]
CC1CCCCC1NC(=O)CN1CCC(O)(c2ccc(F)cc2)CC1 (stereo not given) | inconclusive: 18.4 µM [activator, single point]
Cc1ccc(N=CC2=C(O)CC(c3cccc(Cl)c3)CC2=O)cc1 (stereo not given) | inconclusive: 29.1 µM [activator, single point]
O=C(NC(=S)Nc1ccc(N2CCCCC2)cc1)c1ccco1 | inconclusive: 29.1 µM [activator, single point]
Cc1ncc(CN2CCCC(C(=O)Nc3ccc(-c4ccco4)cc3)C2)cn1 (stereo not given) | inconclusive: 11.6 µM [activator, single point]
